Tested on: NGF
Assay: NGF content of brain regions of Aβ1-40-induced AD rats by ELISA
Assay type: in vivo, Sprague-Dawley male rats
Details: Donepezil 1 mg/kg; after four weeks of treatment; mean ± SD
Protocol: The control group was injected with 5 μL of saline. […] From the fourth week after the administration, learning and memory-related behavior was assessed using the Morris Water Maze Test on ten rats arbitrarily-chosen from each group once a day for one week (from day 1 to day 6 the time to arrive at the platform is measured, and on day 7 the platform is removed and the frequency to cross (pass by) the platform location is counted). After completing the behavioral test, the rats were sacrificed. The cerebral tissues separated from half of the rats of each group were used for pathological examination, and the olfactory bulb, hippocampus, locus ceruleus, and cerebral cortex from another half were used to determine the NGF content with enzyme-linked immunosorbent assay (ELISA).

## COc1cc2c(cc1OC)C(=O)C(CC1CCN(Cc3ccccc3)CC1)C2 (stereo not shown) [Donepezil]
  NGF content, Cerebral cortex: 6.79 ± 1.10 ng/g cranial nerve nucleus
  NGF content, Hippocampus: 14.20 ± 4.14 ng/g cranial nerve nucleus
  NGF content, Locus ceruleus: 3.07 ± 1.38 ng/g cranial nerve nucleus
  NGF content, Olfactory bulb: 10.11 ± 2.10 ng/g cranial nerve nucleus

Source: US8871492B2, “Anti-dementia substance from Hericium erinaceum and method of extraction” (priority 2008, dated 2014)
